Binding data for one substance are collected here from patent US6635743.

Amino acid sequences for entries named in this document (tags omitted). Residues count along the entry.
UniProt Q9QYH9: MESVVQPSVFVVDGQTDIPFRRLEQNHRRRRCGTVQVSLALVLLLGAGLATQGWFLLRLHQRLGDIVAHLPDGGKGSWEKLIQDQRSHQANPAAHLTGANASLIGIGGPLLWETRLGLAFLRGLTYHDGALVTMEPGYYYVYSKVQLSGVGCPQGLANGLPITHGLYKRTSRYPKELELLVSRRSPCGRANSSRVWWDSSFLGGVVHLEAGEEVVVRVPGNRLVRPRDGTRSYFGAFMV
UniProt P50284, residues 31-223: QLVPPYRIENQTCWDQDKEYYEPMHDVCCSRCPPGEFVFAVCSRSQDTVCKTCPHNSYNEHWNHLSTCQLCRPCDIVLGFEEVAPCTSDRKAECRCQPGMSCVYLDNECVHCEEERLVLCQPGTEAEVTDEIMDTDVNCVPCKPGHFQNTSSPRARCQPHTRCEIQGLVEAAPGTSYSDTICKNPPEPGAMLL

The target in the test is mouse AIM II (LIGHT) expressed on cells (mouse) (UniProt Q9QYH9). The experiment in a line: flow cytometry on 293 cells transfected with pmAIM II, FITC anti-human IgG.

Results are given in words; binding and its absence hold for the method and conditions named. Some results given as binding are weak or reduced against the parent protein; the word gives no strength.

As to “mouse LTβR-Ig fusion protein (from UniProt P50284 31-223) (Fc fusion)”, the binding result is “binds”.
